# Primary screen of a compound library

The values are deposited in ChEMBL (CHEMBL3988442, “University of Dundee, Small-Polar-MMV Screening Library” (2021)).

Each number is a percent effect as filed. The record does not define 0% and 100%; most values in the screen are far below 50% and negative numbers occur (in some assays of this library far below -100). Compounds were drawn at random from those tested, without regard to their results. Two or more numbers in one place are separate tests of the same structure; such repeats can differ widely.

A: 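Assay of Toxoplasma gondii numbers, read through their beta-galactosidase reporter with a colour substrate. Concentration: 10 µM. The record gives no direction; the compounds picked for IC50 retests had high values, so higher reads as fewer parasites. Size under these conditions: about 67,000 compounds, about 260 of them at 50% or above in at least one test.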
B: 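Cell assay of Leishmania donovani living inside macrophages; the read-out is not stated. Concentration: 30 µM. Direction is inferred from retests: higher values go with stronger inhibition. Size under these conditions: about 69,000 compounds, about 1,000 of them at 50% or above in at least one test.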

SMILES: Cn1nc(C(=O)NCc2cccs2)c2c1CCS(=O)(=O)C2
A: 3.569%
B: 62.35%

SMILES: O=C(CS(=O)(=O)Cc1ccc(F)cc1)NC1CCCCNC1=O (stereo not shown)
A: 10.16%
B: 23.46%

SMILES: CC(O)C(=O)N1CCC(c2[nH]ncc2-c2ccccc2)CC1 (stereo not shown)
A: -3.396%
B: 23.94%

SMILES: O=C(O)C(F)(F)F.O=C(O)C(F)(F)F.c1ccc(OCC2CC3(CCN(c4ncccn4)CC3)CO2)nc1 (stereo not shown)
A: 3.228%
B: -1.95%

SMILES: CCCc1noc(C(C)S(=O)(=O)Cc2nc(C3CC3)no2)n1 (stereo not shown)
A: 0.4225%
B: 21.08%

SMILES: [H][C@@]12CC[C@H](Oc3ccccc3)[C@]1([H])CN(C(=O)COCCOC)C2
A: -13.93%
B: 13.68% and 24.07%

SMILES: CN1CC=C(c2noc(CCC(=O)N3CCOCC3)n2)CC1
A: -4.035%
B: 27.05% and 2.9%

SMILES: O=C(O)C(F)(F)F.O=S(=O)(C1CC1)N1CCc2onc(COc3ccccn3)c2C1
A: -1.78%
B: -5.976%

SMILES: CC(c1ccco1)N(C)Cc1nc2c(cnn2C)c(=O)[nH]1 (stereo not shown)
A: 4.739%
B: 16.79%

SMILES: O=C(N1CCOCC1)N1CCN(c2ccncc2Cl)CC1
A: -1.955%
B: -15.8%

SMILES: Cc1nc(-c2noc3ccc(C(=O)NCCN(C)C)cc23)co1
A: 23.55%
B: 19.22%

SMILES: COC(=O)c1sc2cccc(F)c2c1CNC(=O)C1CCOC1 (stereo not shown)
A: 6.25%
B: 9.653%

SMILES: COC(=O)CCN(CC1CCOC1)C1CC1 (stereo not shown)
A: 2.817%
B: 7.775%

SMILES: CCCc1cc(C(=O)N[C@@H](CO)[C@@H](O)c2ccccc2)n(C)n1
A: 14.17%
B: 0.7938%

SMILES: Cc1cc(C)nc(N2CCCC2c2[nH]ncc2C(=O)N(C)C)n1 (stereo not shown)
A: -18.59%
B: 22.11%

SMILES: CCc1cc(N[C@H]2CC[C@H](O)CC2)n2nc(C)c(C)c2n1
A: 0%
B: 10.07%

SMILES: COc1cc(C)ccc1OCC(=O)NS(=O)(=O)c1ccc(Br)s1
A: 4.441%
B: 3.908%

SMILES: O=C1NCCC12CN(CC1CC1)CC21CCNCC1 (stereo not shown)
A: -14.31%
B: 9.582%

SMILES: COC1(CNC(=O)NCCc2ccccc2)CCSC1 (stereo not shown)
A: -5.321%
B: 23.15% and -12.51%

SMILES: COc1cc(OC)cc(C2CC(=O)Nc3c2nc2n3CCCC2)c1 (stereo not shown)
A: -3.762%
B: -1.969%

SMILES: Fc1cnc(N2CCC3(COCc4cnc(NCC5CC5)nc43)C2)nc1 (stereo not shown)
A: -11.81%
B: 22.59%

SMILES: COc1ccc(C(=O)NCCCNc2ccc(C(F)(F)F)cn2)cc1
A: -3.784%
B: 37.73%

SMILES: CCc1nc(N)nc(N2CCCC3(CCN(C)CC3)CC2)c1C
A: 6.141%
B: 1.947%

SMILES: CC(C)[C@]1(O)CN(C(=O)COCC(N)=O)C[C@H]1C
A: 23.59%
B: 39.13%

SMILES: CC(NC(=O)Cc1cccs1)(C(N)=O)c1cccc(Cl)c1 (stereo not shown)
A: -7.447%
B: 26.06%

SMILES: [H][C@@]12C[C@@H](OC)C[C@]1([H])CN(C(=O)c1cc3ccc(F)cc3[nH]1)C2
A: 4.913%
B: 18.51%

SMILES: CCOC(=O)N1CC(=O)N(Cc2cccc(OC)c2OC)CC(O)C1 (stereo not shown)
A: -25.41%
B: -1.103%

SMILES: CCc1cc(C)c(C(=O)N2CCCC(c3nnn[nH]3)C2)o1 (stereo not shown)
A: -7.169%
B: -3.232%

SMILES: Cc1nc(N)nc(C)c1CC(=O)N1CCCN(CC2CC2)C(C(C)C)C1 (stereo not shown)
A: -9.717%
B: 19.16%

SMILES: COc1cccc(-c2n[nH]cc2-c2nc(CC3CCN(C)CC3)no2)c1
A: -4.174%
B: -2.62%

SMILES: Cc1cccc(Nc2noc3c2CN(C(=O)c2ccn(C)n2)CC3)c1C
A: 5.734%
B: -3.011%

SMILES: O=C(C1CCS(=O)(=O)C1)N1CCC(=Cc2cccc(F)c2)CC1 (stereo not shown)
A: -19.88%
B: 2.966%

SMILES: N#Cc1ccc(CN2CCCC2Cn2cccn2)cc1 (stereo not shown)
A: -14.71%
B: 26.7%

SMILES: CC[C@@H](CO)Nc1nccc(-c2cnc3sc(C)cn3c2=O)n1
A: 6.048%
B: -3.248% and -0.6504%

SMILES: CCN1CCOCC12CCN(C(=O)Cc1cccs1)CC2.O=C(O)C(F)(F)F
A: -6.754%
B: 20.02%

SMILES: COc1ncc(NS(=O)(=O)c2ccc(F)cc2F)cn1
A: -7.042%
B: 17.1%

SMILES: Cc1nn(-c2ccccc2)c(C)c1-c1ccnc(N2CCCNCC2)n1
A: -0.05764%
B: 18.92%

SMILES: Cc1ccc(C(C)N(C)Cc2nc3c(cnn3C)c(=O)[nH]2)c(C)c1 (stereo not shown)
A: -20.38%
B: 18.72%

SMILES: Cn1ccnc1CN1CCC2(CC1)CN(c1cncnc1)C(=O)CO2.O=C(O)C(F)(F)F
A: -2.024%
B: 34.73%

SMILES: Cc1ccc(C(=O)Nc2nnc(C3CC3)s2)c(-n2cnnn2)c1C
A: -2.243%
B: 18.39%

SMILES: Cc1cccc(Cn2c(=O)[nH]c3csnc3c2=O)c1
A: 1.398%
B: -6.442%

SMILES: O=C(CO)N1CCc2onc(Cn3cccn3)c2C1
A: 3.736%
B: 27.1%

SMILES: O=C(COCC1CCCO1)N(Cc1cccnc1)c1ccc(F)cc1 (stereo not shown)
A: 1.783%
B: -17.08%

SMILES: Cc1ccc(CN2CCC3(CC2)C(=O)N(CCO)CCN3C)o1.O=C(O)C(F)(F)F.O=C(O)C(F)(F)F
A: -30.33%
B: -0.7233%

SMILES: Cc1noc(C2CCCN(C(=O)c3ccc(N(C)C)nc3)C2)n1 (stereo not shown)
A: -24.94%
B: 16.02%

Repeated from the top, 5 entries:

For Cn1nc(C(=O)NCc2cccs2)c2c1CCS(=O)(=O)C2 the result was A: 3.569%; B: 62.35%.
For O=C(CS(=O)(=O)Cc1ccc(F)cc1)NC1CCCCNC1=O (stereo not shown) the result was A: 10.16%; B: 23.46%.
For CC(O)C(=O)N1CCC(c2[nH]ncc2-c2ccccc2)CC1 (stereo not shown) the result was A: -3.396%; B: 23.94%.
For O=C(O)C(F)(F)F.O=C(O)C(F)(F)F.c1ccc(OCC2CC3(CCN(c4ncccn4)CC3)CO2)nc1 (stereo not shown) the result was A: 3.228%; B: -1.95%.
For CCCc1noc(C(C)S(=O)(=O)Cc2nc(C3CC3)no2)n1 (stereo not shown) the result was A: 0.4225%; B: 21.08%.